Values of other authors as cited in US5128376A, “Method for percutaneously administering physiologically active agents using an adjuvant a solvent and a diol moderator” (priority 1990, dated 1992).

Details: therapeutic oral doses in man; Kaplan et al., J. Pharm. Sci. 1973; cited from earlier work

CN1C(=O)CN=C(c2ccccc2)c2cc(Cl)ccc21 [diazepam, 7-Chloro-1,3-dihydro-1-methyl-5-phenyl-2H-1,4-benzodiazepine-2-one]
blood levels: approximately 100 ng/ml plasma
